In US20260256792A1, “TREATMENT OF CHRONIC SPONTANEOUS URTICARIA BY ADMINISTERING (R)-2-[3-[4-AMINO-3-(2-FLUORO-4-PHENOXY-PHENYL)PYRAZOLO[3,4-D]PYRIMIDIN-1-YL]PIPERIDINE-1-CARBONYL]-4-METHYL-4-[4-(OXETAN-3-YL)PIPERAZIN-1-YL]PENT-2-ENENITRILE” (priority 2023, published 2026):
The source gives many values for each of these; only a part stands here.

Tested on: moderate-to-severe chronic spontaneous urticaria (CSU)
Assay: Phase 2 CSU study: urticaria activity score over 7 days (UAS7)
Type: in vivo, human
Conditions: Omalizumab-Naïve
Text: The study comprises a 12 week, randomized, double-blind, placebo-controlled, multi-center, dose-ranging efficacy and safety phase, followed by a 40 week open label extension (OLE) phase (see FIG. 1). The study consists of three phases and an optional OLE phase. […] Clinically, CSU is characterized by the spontaneous and recurrent appearance of pruritic hives. The proposed primary endpoints were the UAS7 at Week 12 in EU and EU reference countries and the ISS7 in the US. Regardless of where a participant was from, all assessments were the same. The UAS7 score is a composite score containing both the HSS7 and the ISS7. This allowed a global assessment of the two key components of urticaria: hives and itch. […] The UAS is a validated PRO measure. […] The daily UAS scores range from 0 to 6 point/day. […] Patients were to complete the UAS using the e-diary. […] The following secondary endpoints were to be analyzed using the same approach as for the primary endpoint: • Change from baseline in UAS7 at Week 4 • Change from baseline in UAS7 at Week 12 (for US and US reference countries) • Change from baseline in ISS7 at Week 12 (except US and US reference countries) • Change from baseline in HSS7 at Week 12 The following responder secondary endpoints were to be analyzed using the Cochran-Mantel-Haenszel test adjusted by region: • Proportion of participants with UAS7<6 at Week 12 • Proportion of participants with UAS7=0 at Week 12 Participants who received selected prohibited medications and/or rescue medications were to be considered as non-responders for time points after the medication usage. For other participants, all available data including those collected during the off-treatment period were to be used to determine the responder/non-responder status. Missing data were to be considered as non-responders.

[1] = Baseline BMI (kg/m^2) <25, 400 mg BID
[2] = Baseline BMI (kg/m^2) <25, 400 mg QPM
[3] = Baseline BMI (kg/m^2) <25, 400 mg TID
[4] = Baseline BMI (kg/m^2) ≥25-<30, 400 mg BID
[5] = Baseline BMI (kg/m^2) ≥25-<30, 400 mg QPM
[6] = Baseline BMI (kg/m^2) ≥25-<30, 400 mg TID
[7] = Baseline BMI (kg/m^2) ≥30, 400 mg BID
[8] = Baseline BMI (kg/m^2) ≥30, 400 mg QPM
[9] = Baseline BMI (kg/m^2) ≥30, 400 mg TID
[10] = Baseline weight (kg) <60, 400 mg BID
[11] = Baseline weight (kg) <60, 400 mg QPM
[12] = Baseline weight (kg) <60, 400 mg TID
[13] = Baseline weight (kg) <72.9 (Median), 400 mg BID
[14] = Baseline weight (kg) <72.9 (Median), 400 mg QPM
[15] = Baseline weight (kg) <72.9 (Median), 400 mg TID
[16] = Baseline weight (kg) ≥60-<90, 400 mg BID
[17] = Baseline weight (kg) ≥60-<90, 400 mg QPM
[18] = Baseline weight (kg) ≥60-<90, 400 mg TID
[19] = Baseline weight (kg) ≥72.9 (Median), 400 mg BID
[20] = Baseline weight (kg) ≥72.9 (Median), 400 mg QPM
[21] = Baseline weight (kg) ≥72.9 (Median), 400 mg TID
[22] = Baseline weight (kg) ≥90, 400 mg BID
[23] = Baseline weight (kg) ≥90, 400 mg QPM
[24] = Baseline weight (kg) ≥90, 400 mg TID

With `CC(C)(C=C(C#N)C(=O)N1CCC[C@@H](n2nc(-c3ccc(Oc4ccccc4)cc3F)c3c(N)ncnc32)C1)N1CCN(C2COC2)CC1` [rilzabrutinib, (R)-2-[3-[4-amino-3-(2-fluoro-4-phenoxy-phenyl)pyrazolo[3,4-d]pyrimidin-1-yl]piperidine-1-carbonyl]-4-methyl-4-[4-(oxetan-3-yl)piperazin-1-yl]pent-2-enenitrile] the “Change from Baseline in UAS7 at Week 12: LS Mean (SE)” value (from here on “Change from Baseline in UAS7 … (SE)”) [1] was −14.48 (2.43), the “Change from Baseline in UAS7 at Week 12: LS Mean Diff vs. placebo (95% CI)” value (“Change from Baseline in UAS7 … (95% CI)” for short) [1] was −5.83 (−12.83, 1.16) and the “Change from Baseline in UAS7 at Week 12: Mean (SD)” value (from here on “Change from Baseline in UAS7 … (SD)”) [1] was −14.44 (11.30). For the same compound, the “Change from Baseline in UAS7 … (SE)” value [2] was −6.27 (2.66), the “Change from Baseline in UAS7 … (95% CI)” value [2] was 2.37 (−4.98, 9.73) and the “Change from Baseline in UAS7 … (SD)” value [2] was −7.00 (7.22). The “Change from Baseline in UAS7 … (SE)” value [3] was −17.23 (3.19), the “Change from Baseline in UAS7 … (95% CI)” value [3] was −8.58 (−16.69, −0.47) and the “Change from Baseline in UAS7 … (SD)” value [3] was −17.02 (13.10). For the same compound, the “Change from Baseline in UAS7 … (SE)” value [4] was −11.34 (4.80), the “Change from Baseline in UAS7 … (95% CI)” value [4] was −2.01 (−14.35, 10.33) and the “Change from Baseline in UAS7 … (SD)” value [4] was −13.03 (16.22). For the same compound, the “Change from Baseline in UAS7 … (SE)” value [5] was −7.48 (3.95), the “Change from Baseline in UAS7 … (95% CI)” value [5] was 1.85 (−9.71, 13.42) and the “Change from Baseline in UAS7 … (SD)” value [5] was −10.92 (12.01). For the same compound, the “Change from Baseline in UAS7 … (SE)” value [6] was −14.99 (2.89), the “Change from Baseline in UAS7 … (95% CI)” value [6] was −5.67 (−15.50, 4.16) and the “Change from Baseline in UAS7 … (SD)” value [6] was −19.44 (10.56). For the same compound, the “Change from Baseline in UAS7 … (SE)” value [7] was −15.87 (4.21), the “Change from Baseline in UAS7 … (SD)” value [7] was −16.50 (13.23) and the “Change from Baseline in UAS7 … (SE)” value [8] was −14.65 (3.89). For the same compound, the “Change from Baseline in UAS7 … (SD)” value [8] was −15.85 (8.40), the “Change from Baseline in UAS7 … (SE)” value [9] was −21.80 (5.17) and the “Change from Baseline in UAS7 … (SD)” value [9] was −23.25 (10.60). The “Change from Baseline in UAS7 … (SE)” value [10] was −11.36 (3.92), the “Change from Baseline in UAS7 … (95% CI)” value [10] was −3.35 (−13.61, 6.91) and the “Change from Baseline in UAS7 … (SD)” value [10] was −10.00 (9.76). The “Change from Baseline in UAS7 … (SE)” value [11] was −6.74 (4.50), the “Change from Baseline in UAS7 … (SD)” value [11] was −7.82 (8.01) and the “Change from Baseline in UAS7 … (SE)” value [12] was −19.90 (4.01). The “Change from Baseline in UAS7 … (95% CI)” value [12] was −11.88 (−22.36, −1.40), the “Change from Baseline in UAS7 … (SD)” value [12] was −19.50 (14.84) and the “Change from Baseline in UAS7 … (SE)” value [13] was −13.03 (2.58). For the same compound, the “Change from Baseline in UAS7 … (95% CI)” value [13] was −2.19 (−9.21, 4.84), the “Change from Baseline in UAS7 … (SE)” value [14] was −7.76 (2.45) and the “Change from Baseline in UAS7 … (95% CI)” value [14] was 3.08 (−3.85, 10.01). The “Change from Baseline in UAS7 … (SE)” value [15] was −18.62 (2.85), the “Change from Baseline in UAS7 … (95% CI)” value [15] was −7.78 (−15.19, −0.37) and the “Change from Baseline in UAS7 … (SE)” value [16] was −13.31 (2.65). For the same compound, the “Change from Baseline in UAS7 … (95% CI)” value [16] was −2.12 (−9.70, 5.46), the “Change from Baseline in UAS7 … (SD)” value [16] was −15.04 (13.16) and the “Change from Baseline in UAS7 … (SE)” value [17] was −9.11 (2.26). The “Change from Baseline in UAS7 … (95% CI)” value [17] was 2.08 (−5.04, 9.20), the “Change from Baseline in UAS7 … (SE)” value [18] was −15.74 (2.43) and the “Change from Baseline in UAS7 … (95% CI)” value [18] was −4.55 (−11.84, 2.73). The “Change from Baseline in UAS7 … (SD)” value [18] was −18.74 (10.60), the “Change from Baseline in UAS7 … (SE)” value [19] was −15.67 (3.01) and the “Change from Baseline in UAS7 … (95% CI)” value [19] was −7.75 (−16.17, 0.68). For the same compound, the “Change from Baseline in UAS7 … (SD)” value [19] was −16.91 (15.27), the “Change from Baseline in UAS7 … (SE)” value [20] was −11.30 (3.07) and the “Change from Baseline in UAS7 … (95% CI)” value [20] was −3.37 (−11.78, 5.05). The “Change from Baseline in UAS7 … (SD)” value [20] was −13.96 (10.98), the “Change from Baseline in UAS7 … (SE)” value [21] was −16.27 (2.71) and the “Change from Baseline in UAS7 … (95% CI)” value [21] was −8.35 (−16.31, −0.38). The “Change from Baseline in UAS7 … (SD)” value [21] was −17.48 (9.72), the “Change from Baseline in UAS7 … (SE)” value [22] was −20.74 (5.01) and the “Change from Baseline in UAS7 … (95% CI)” value [22] was −11.96 (−25.48, 1.56). The “Change from Baseline in UAS7 … (SD)” value [22] was −22.00 (9.00), the “Change from Baseline in UAS7 … (SE)” value [23] was −14.44 (7.38) and the “Change from Baseline in UAS7 … (95% CI)” value [23] was −5.66 (−22.88, 11.55). For the same compound, the “Change from Baseline in UAS7 … (SD)” value [23] was −16.67 (9.07), the “Change from Baseline in UAS7 … (SE)” value [24] was −20.81 (7.30) and the “Change from Baseline in UAS7 … (95% CI)” value [24] was −12.03 (−29.07, 5.01). The “Change from Baseline in UAS7 … (SD)” value [24] was −19.44 (9.03), the “Change from Baseline in UAS7 … (SE)” value (Gender Female, 400 mg BID) was −12.97 (2.46) and the “Change from Baseline in UAS7 … (95% CI)” value (Gender Female, 400 mg BID) was −1.57 (−8.27, 5.12). The “Change from Baseline in UAS7 … (SE)” value (Gender Female, 400 mg QPM) was −9.27 (2.22), the “Change from Baseline in UAS7 … (95% CI)” value (Gender Female, 400 mg QPM) was 2.13 (−4.34, 8.59) and the “Change from Baseline in UAS7 … (SE)” value (Gender Female, 400 mg TID) was −18.51 (2.16). The “Change from Baseline in UAS7 … (95% CI)” value (Gender Female, 400 mg TID) was −7.12 (−13.39, −0.85), the “Change from Baseline in UAS7 … (95% CI)” value (Gender Male, 400 mg BID) was −9.97 (−19.70, −0.25) and the “Change from Baseline in UAS7 … (95% CI)” value (Gender Male, 400 mg QPM) was −2.15 (−12.83, 8.54). For the same compound, the “Change from Baseline in UAS7 … (SE)” value (Gender Male, 400 mg TID) was −11.21 (4.99) and the “Change from Baseline in UAS7 … (95% CI)” value (Gender Male, 400 mg TID) was −4.51 (−16.53, 7.51).
